In this test the test system is Salmonella enterica serovar Typhimurium SL1344. Nature of the test: normalized intracellular growth (luminescence, IQM-normalized) in RAW264.7 macrophages (fraction of plate interquartile mean); higher = more bacterial growth (less inhibition). The following applies: 10 µM.

Each structure is given as a SMILES string. ± gives the standard deviation of the averaged measurements. In all, about 1,600 compounds were measured (“normalized intracellular growth (luminescence, IQM-normalized) in RAW264.7 macrophages”: median about 1, lowest 2% from about 0.43 on). The list shows a part of the results.

Consider `CNC(C)(C)Cc1ccccc1`, for which the normalized intracellular growth was 1.07 ± 0.097 (time point: T3 (3 h)) and 1.22 ± 0.041 (time point: Tfinal (~6 h)).

For `CCOP(=S)(OCC)Oc1cc(C)nc(C(C)C)n1`, the normalized intracellular growth is, setting by setting: (time point: T3 (3 h)) 0.931 ± 0.039; (time point: Tfinal (~6 h)) 0.917 ± 0.16.

For `C[C@]12CCC(=O)C(O)=C1CC[C@@H]1[C@@H]2CC[C@]2(C)C(=O)CC[C@@H]12`, the normalized intracellular growth is, setting by setting: (time point: T3 (3 h)) 0.9688 ± 0.0047; (time point: Tfinal (~6 h)) 1.01 ± 0.081.

`CNCC(O)c1ccc(O)cc1` (stereo unspecified): the normalized intracellular growth worked out at 0.949 ± 0.04 (time point: T3 (3 h)) and 0.946 ± 0.048 (time point: Tfinal (~6 h)).

In the case of `CC(C)C[C@H]1C(=O)N2CCC[C@H]2[C@]2(O)O[C@](NC(=O)[C@@H]3C=C4c5cccc6[nH]c(Br)c(c56)C[C@H]4N(C)C3)(C(C)C)C(=O)N12`, the normalized intracellular growth reads like this: (time point: T3 (3 h)) 0.978 ± 0.041; (time point: Tfinal (~6 h)) 0.934 ± 0.071.

On to `CN1[C@@H]2CC[C@H]1C[C@@H](OC(=O)C(CO)c1ccccc1)C2` (stereo partly specified), for which the normalized intracellular growth reads like this: (time point: T3 (3 h)) 1.05 ± 0.06; (time point: Tfinal (~6 h)) 1.03 ± 0.12.

Consider `Nc1ccc([As](=O)(O)O)cc1`, for which the normalized intracellular growth is 0.997 ± 0.034 (time point: T3 (3 h)) and 0.735 ± 0.11 (time point: Tfinal (~6 h)).

For `CCCCCCCCC(=O)NCc1ccc(O)c(OC)c1`, the normalized intracellular growth amounted to 1.01 ± 0.035 (time point: T3 (3 h)) and 0.99 ± 0.064 (time point: Tfinal (~6 h)).

For the molecule `O=[N+]([O-])OCC(CO[N+](=O)[O-])O[N+](=O)[O-]`, the normalized intracellular growth by setting is: (time point: T3 (3 h)) 1.01 ± 0.044; (time point: Tfinal (~6 h)) 0.68 ± 0.22.

Consider `NCCCNCCSP(=O)(O)O`, for which the normalized intracellular growth reads like this: (time point: T3 (3 h)) 0.96 ± 0.035; (time point: Tfinal (~6 h)) 1 ± 0.073.

Turning to `C#CCN(C)[C@H](C)Cc1ccccc1`, the normalized intracellular growth amounted to 1.1 ± 0.025 (time point: T3 (3 h)) and 0.976 ± 0.32 (time point: Tfinal (~6 h)).

Take `C[C@@H]1O[C@@H](O[C@@H]2C=C3CC[C@@H]4[C@H](CC[C@]5(C)[C@@H](c6ccc(=O)oc6)CC[C@]45O)[C@@]3(C)CC2)[C@H](O)[C@H](O)[C@H]1O`: the normalized intracellular growth by setting is: (time point: T3 (3 h)) 1.01 ± 0.031; (time point: Tfinal (~6 h)) 0.813 ± 0.17.

`CN(C)C(=O)Oc1ccc[n+](C)c1`: the normalized intracellular growth was 0.796 ± 0.015 (time point: T3 (3 h)) and 0.459 ± 0.0048 (time point: Tfinal (~6 h)).

In the case of `CC(=O)Nc1cc([As](=O)(O)O)ccc1O`, the normalized intracellular growth is, setting by setting: (time point: T3 (3 h)) 1.1 ± 0.073; (time point: Tfinal (~6 h)) 1.09 ± 0.02.

Take `O=c1[nH]c2ccccc2n1C1CCN(CCCC(c2ccc(F)cc2)c2ccc(F)cc2)CC1`: the normalized intracellular growth (time point: T3 (3 h)) came to 0.967 ± 0.011 and the normalized intracellular growth (time point: Tfinal (~6 h)) was 1.1 ± 0.027.

`CC(=O)[O][Hg][c]1ccccc1` returned a normalized intracellular growth (time point: T3 (3 h)) of 0.575 ± 0.093 and a normalized intracellular growth (time point: Tfinal (~6 h)) of 0.336 ± 0.15.

As for `CN1C[C@H](C(=O)N[C@]2(C)O[C@@]3(O)[C@@H]4CCCN4C(=O)[C@H](Cc4ccccc4)N3C2=O)C=C2c3cccc4[nH]cc(c34)C[C@H]21`, the normalized intracellular growth reads like this: (time point: T3 (3 h)) 1.03 ± 0.02; (time point: Tfinal (~6 h)) 0.769 ± 0.38.

Take `[O-][n+]1ccccc1[S-].[O-][n+]1ccccc1[S-].[Zn+2]`: the normalized intracellular growth runs as follows: (time point: T3 (3 h)) 0.762 ± 0.15; (time point: Tfinal (~6 h)) 1.47 ± 0.12.

For `CN1[C@@H]2C[C@@H](OC(=O)[C@H](CO)c3ccccc3)C[C@H]1[C@@H]1O[C@@H]12`, the normalized intracellular growth runs as follows: (time point: T3 (3 h)) 0.9722 ± 0.0094; (time point: Tfinal (~6 h)) 1.12 ± 0.083.

As to `O=[N+]([O-])C(Br)(CO)CO`, the normalized intracellular growth is, setting by setting: (time point: T3 (3 h)) 0.988 ± 0.023; (time point: Tfinal (~6 h)) 1.03 ± 0.11.

As to `NCC(CC(=O)O)c1ccc(Cl)cc1` (stereo unspecified), the normalized intracellular growth amounted to 0.993 ± 0.034 (time point: T3 (3 h)) and 0.908 ± 0.038 (time point: Tfinal (~6 h)).

`CCOC(=O)CC(SP(=S)(OC)OC)C(=O)OCC` (stereo unspecified): the normalized intracellular growth is, setting by setting: (time point: T3 (3 h)) 0.9134 ± 0.0039; (time point: Tfinal (~6 h)) 0.929 ± 0.32.

On to `CC(N)Cc1ccc(O)cc1` (stereo unspecified), for which the normalized intracellular growth runs as follows: (time point: T3 (3 h)) 0.95 ± 0.082; (time point: Tfinal (~6 h)) 0.903 ± 0.11.

Consider `NCc1cccnc1`, for which the normalized intracellular growth runs as follows: (time point: T3 (3 h)) 1 ± 0.03; (time point: Tfinal (~6 h)) 0.876 ± 0.071.

`O=C(O)CCCO`: the normalized intracellular growth worked out at 0.993 ± 0.076 (time point: T3 (3 h)) and 0.955 ± 0.026 (time point: Tfinal (~6 h)).

Consider `C=C/C=C\CC1=C(C)[C@@H](OC(=O)[C@@H]2[C@@H](/C=C(\C)C(=O)OC)C2(C)C)CC1=O.C=C/C=C\CC1=C(C)[C@@H](OC(=O)[C@@H]2[C@@H](C=C(C)C)C2(C)C)CC1=O`, for which the normalized intracellular growth is, setting by setting: (time point: T3 (3 h)) 1.01 ± 0.014; (time point: Tfinal (~6 h)) 0.938 ± 0.13.

With `CC(NC(C)(C)C)C(=O)c1cccc(Cl)c1` (stereo unspecified), the normalized intracellular growth (time point: T3 (3 h)) came to 1.02 ± 0.026 and the normalized intracellular growth (time point: Tfinal (~6 h)) came to 0.94 ± 0.061.

For the molecule `CN[C@@H]1[C@@H](O)[C@@H](O[C@@H]2[C@@H](O)[C@H](O[C@H]3O[C@H](CN)CC[C@H]3N)[C@@H](N)C[C@H]2N)OC[C@]1(C)O.CN[C@@H]1[C@@H](O)[C@@H](O[C@@H]2[C@@H](O)[C@H](O[C@H]3O[C@H]([C@@H](C)N)CC[C@H]3N)[C@@H](N)C[C@H]2N)OC[C@]1(C)O.CN[C@@H]1[C@@H](O)[C@@H](O[C@@H]2[C@@H](O)[C@H](O[C@H]3O[C@H]([C@@H](C)NC)CC[C@H]3N)[C@@H](N)C[C@H]2N)OC[C@]1(C)O`, the normalized intracellular growth was 0.936 ± 0.049 (time point: T3 (3 h)) and 0.895 ± 0.049 (time point: Tfinal (~6 h)).

For the molecule `CN1CCN(C(=O)O[C@H]2c3nccnc3C(=O)N2c2ccc(Cl)cn2)CC1`, the normalized intracellular growth runs as follows: (time point: T3 (3 h)) 1.05 ± 0.039; (time point: Tfinal (~6 h)) 0.937 ± 0.18.

Consider `O=C1CC[C@@]2(O)[C@H]3Cc4ccc(O)c5c4[C@@]2(CCN3CC2CC2)[C@H]1O5`, for which the normalized intracellular growth by setting is: (time point: T3 (3 h)) 1.04 ± 0.071; (time point: Tfinal (~6 h)) 1.12 ± 0.11.

With `NC(=O)c1cc([N+](=O)[O-])cc([N+](=O)[O-])c1`, the normalized intracellular growth by setting is: (time point: T3 (3 h)) 1.14 ± 0.014; (time point: Tfinal (~6 h)) 1.14 ± 0.099.

For `CC(=O)O[C@H]1C[C@@H]2CC[C@@H]3[C@H](CC[C@@]4(C)[C@H]3C[C@H]([N+]3(C)CCCCC3)[C@@H]4OC(C)=O)[C@@]2(C)C[C@@H]1[N+]1(C)CCCCC1`, the normalized intracellular growth runs as follows: (time point: T3 (3 h)) 0.927 ± 0.054; (time point: Tfinal (~6 h)) 0.928 ± 0.067.

For `NCC(O)c1ccc(O)cc1` (stereo unspecified), the normalized intracellular growth reads like this: (time point: T3 (3 h)) 0.977 ± 0.056; (time point: Tfinal (~6 h)) 0.872 ± 0.14.

`C[C@]12CC[C@H]3[C@@H](CCC4=CC(=O)CC[C@@]43C)[C@@H]1CC[C@@H]2O`: the normalized intracellular growth reads like this: (time point: T3 (3 h)) 1.03 ± 0.17; (time point: Tfinal (~6 h)) 1.23 ± 0.058.

`c1ccc2c(c1)Nc1ccccc1S2`: the normalized intracellular growth runs as follows: (time point: T3 (3 h)) 1.1 ± 0.054; (time point: Tfinal (~6 h)) 0.889 ± 0.14.

Take `Cc1ccc(/N=C/N(C)/C=N/c2ccc(C)cc2C)c(C)c1`: the normalized intracellular growth by setting is: (time point: T3 (3 h)) 1.12 ± 0.025; (time point: Tfinal (~6 h)) 0.594 ± 0.084.

On to `O=c1c2ccccc2[se]n1-c1ccccc1`, for which the normalized intracellular growth (time point: T3 (3 h)) turned out to be 0.969 ± 0.039 and the normalized intracellular growth (time point: Tfinal (~6 h)) came to 0.813 ± 0.14.

As to `S=C=NCc1ccccc1`, the normalized intracellular growth was found to be 1.24 ± 0.17 (time point: T3 (3 h)) and 1.22 ± 0.14 (time point: Tfinal (~6 h)).

With `COP(=O)(OC)OC=C(Cl)Cl`, the normalized intracellular growth runs as follows: (time point: T3 (3 h)) 1 ± 0.065; (time point: Tfinal (~6 h)) 1.06 ± 0.066.

Consider `C[C@]12CCC(=O)C=C1C=C[C@@H]1[C@@H]2CC[C@@]2(C)[C@H]1CC[C@@]2(O)CCC(=O)O`, for which the normalized intracellular growth by setting is: (time point: T3 (3 h)) 1.12 ± 0.092; (time point: Tfinal (~6 h)) 1.21 ± 0.15.

As to `CC[C@@H](C(=O)[C@@H](C)[C@@H](O)[C@H](C)[C@@H]1O[C@@H]([C@@H](CC)C(=O)O)CC[C@@H]1C)[C@H]1O[C@]2(C=C[C@@H](O)[C@]3(CC[C@@](C)([C@H]4CC[C@](O)(CC)[C@H](C)O4)O3)O2)[C@H](C)C[C@@H]1C`, the normalized intracellular growth came to 1.06 ± 0.083 (time point: T3 (3 h)) and 0.73 ± 0.13 (time point: Tfinal (~6 h)).

For the molecule `Cc1cccc(C)c1NC(=O)CN1CCCC1=O`, the normalized intracellular growth reads like this: (time point: T3 (3 h)) 1.03 ± 0.03; (time point: Tfinal (~6 h)) 0.892 ± 0.042.

For `C=CCN1CC[C@]23c4c5ccc(O)c4O[C@H]2C(=O)CC[C@@]3(O)[C@H]1C5`, the normalized intracellular growth by setting is: (time point: T3 (3 h)) 1.052 ± 0.0039; (time point: Tfinal (~6 h)) 0.549 ± 0.16.
